Data as given in PubChem BioAssay AID1259405 (NCATS, 2018).
In all, the deposit lists about 50,000 reagents; this is an unselected part. In the full data, about 4,000 (8%) were called active. 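Mouse siRNA library applied to hamster cells; one well for each siRNA.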 A number with no mark means an inactive call. The numbers tell different reagents against one gene apart.

Purpose: 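Knock-downs that lift recombinant protein yield in hamster ovary cells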 (primary screen)
System: Chinese hamster CHO-K1 ovary cells with stable secreted eGFP expression
Knock-down reagent: single siRNA against mouse genes, 0.8 pmol siRNA per well (2 µl of 400 nM stock)
Time to read-out: 3 days
Read-out: 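Percent of the per-plate non-targeting control median for intracellular GFP per well by laser scanning cytometry and for cell viability by ATP luminescence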
Scale: GFP, % of control: higher = more GFP per well, higher productivity; viability (ATP), % of control: higher = more viable cells (more ATP)
Call rule: 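a knock-down is called active if GFP reaches 120% or more of non-targeting control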

Adam39 (a disintegrin and metallopeptidase domain 39) #1 → GFP, % of control: 9.96; viability (ATP), % of control: 96.4
Adam39 (a disintegrin and metallopeptidase domain 39) #2 → GFP, % of control: 31.5; viability (ATP), % of control: 35.2
Adam39 (a disintegrin and metallopeptidase domain 39) #3 → GFP, % of control: 82.4; viability (ATP), % of control: 92.2
Chil3 (chitinase-like 3) #1 → GFP, % of control: 95; viability (ATP), % of control: 64
Chil3 (chitinase-like 3) #2 → GFP, % of control: 72.3; viability (ATP), % of control: 78
Chil3 (chitinase-like 3) #3 → GFP, % of control: 49.2; viability (ATP), % of control: 43.2
Abcb1b (ATP-binding cassette, sub-family B member 1B) #1 → GFP, % of control: 63.4; viability (ATP), % of control: 46.5
Abcb1b (ATP-binding cassette, sub-family B member 1B) #2 → GFP, % of control: 88.2; viability (ATP), % of control: 101
Abcb1b (ATP-binding cassette, sub-family B member 1B) #3 → GFP, % of control: 54.6; viability (ATP), % of control: 67.3
Tmem50a (transmembrane protein 50A) #1 → GFP, % of control: 58.9; viability (ATP), % of control: 65.5
Tmem50a (transmembrane protein 50A) #2 → GFP, % of control: 73; viability (ATP), % of control: 116
Tmem50a (transmembrane protein 50A) #3 → GFP, % of control: 116; viability (ATP), % of control: 99.7
Or6c33 (olfactory receptor family 6 subfamily C member 33) #1 → GFP, % of control: 120; viability (ATP), % of control: 92.6
Or6c33 (olfactory receptor family 6 subfamily C member 33) #2 → GFP, % of control: 106; viability (ATP), % of control: 74.5
Or6c33 (olfactory receptor family 6 subfamily C member 33) #3 → GFP, % of control: 69.2; viability (ATP), % of control: 113
Lsm11 (U7 snRNP-specific Sm-like protein LSM11) #1 → GFP, % of control: 65.2; viability (ATP), % of control: 83.9
Lsm11 (U7 snRNP-specific Sm-like protein LSM11) #2 → GFP, % of control: 72.9; viability (ATP), % of control: 87.4
Lsm11 (U7 snRNP-specific Sm-like protein LSM11) #3 → GFP, % of control: 97.4; viability (ATP), % of control: 89.3
Fcer1g (Fc receptor, IgE, high affinity I, gamma polypeptide) #1 → GFP, % of control: 92.9; viability (ATP), % of control: 77.1
Fcer1g (Fc receptor, IgE, high affinity I, gamma polypeptide) #2 → GFP, % of control: 53.1; viability (ATP), % of control: 40
Fcer1g (Fc receptor, IgE, high affinity I, gamma polypeptide) #3 → GFP, % of control: 69.4; viability (ATP), % of control: 67.5
Cpt2 (carnitine palmitoyltransferase 2) #1 → GFP, % of control: 117; viability (ATP), % of control: 92.2
Cpt2 (carnitine palmitoyltransferase 2) #2 → GFP, % of control: 106; viability (ATP), % of control: 164
Cpt2 (carnitine palmitoyltransferase 2) #3 → GFP, % of control: 134 (active); viability (ATP), % of control: 95.9
Xrn2 (5'-3' exoribonuclease 2) #1 → GFP, % of control: 39.1; viability (ATP), % of control: 85.6
Xrn2 (5'-3' exoribonuclease 2) #2 → GFP, % of control: 122 (active); viability (ATP), % of control: 104
Xrn2 (5'-3' exoribonuclease 2) #3 → GFP, % of control: 54; viability (ATP), % of control: 33.7
